# Patent publication US20060153861A1, “BCR-ABL imatinib resistance-associated peptides and methods of use thereof” (priority 2004, published 2006)
# Some results were stated once for a whole list of compounds, not compound by compound. Some ranges recur; such a range may be that of the whole group of compounds.
# Target: HLA A0201 (Homo sapiens, UniProt P04439, D140Y/D185E/D98H/E176V/E277Q/G131W/G231S/I119V/I121R/I166T/I218V/L300P/L318F/N151K/N90K/P208A/P217A/Q86G/Q94H/R138H/R169H/T345S)
# Test: T2 stabilization assay: peptide dissociation from HLA A0201
# Assay type: binding
# Design: an increase in the level of surface HLA-A0201 recognizable by specific mAb such as BB7.2; endogenous in cells; host or cells: T2 (174xCEM.T2) human cell line
# Settings: T2 cells, after removal of unbound peptide, brefeldin A
Sequence,peptide/HLA-A0201 complexes stable over [h],time to reach background levels of surface HLA-A0201
KLLQRPVAV (listed as Homo sapiens) [p210C],6 to 8,
KLSSKALQV (listed as Homo sapiens) [p210B],,less than 1 hour
KQSSKALQV (listed as Homo sapiens) [p210A],,less than 1 hour
YLKALQRPV (listed as Homo sapiens) [p210F],6 to 8,
